Taken from: PubChem BioAssay AID1259308 (NCATS, 2017)
Screen: 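Candidate targets for better recombinant protein yield in mammalian cells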 (primary screen). System: human HEK293 embryonic kidney cells stably expressing firefly luciferase (HEK-CMV-Luc2-Hygro). Reagents: single siRNA against human genes, 0.8 pmol siRNA per well. Duration: 72 h. Read-out: 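Reporter luminescence and viable-cell signal on separate replicate plates, given as percent of non-targeting control and median/MAD z-scores, plus per-cell luciferase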. Reading the numbers: total luciferase, z-score and total luciferase, % of control: higher = more reporter protein produced. Hit rule: 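An siRNA counts as active if its total luciferase robust z-score exceeds 3; genes with two or more such siRNAs out of three were retested with fresh siRNAs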. Meaning of the calls: active = raised luciferase; inactive = no rise.
This is a random part of about 59,000 reagents tested. About 1,510 of all reagents (2.6%) were called active. 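Calls use total luciferase alone and ignore viability, so some active siRNAs may act by altering cell number.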 The numbers tell different reagents against one gene apart. Not all columns of the deposit are shown. Reagent sequences are not shown.

gene	reagent	total luciferase, z-score	total luciferase, % of control	outcome
ACTR5 (actin related protein 5)	1	-0.393	74.1	inactive
ACTR5 (actin related protein 5)	2	0.283	87.5	inactive
ACTR5 (actin related protein 5)	3	2.59	133	inactive
MORF4 (mortality factor 4 (pseudogene))	1	-0.216	77.6	inactive
MORF4 (mortality factor 4 (pseudogene))	2	-1.08	60.5	inactive
MORF4 (mortality factor 4 (pseudogene))	3	0.461	91.1	inactive
ANKRD20A18P (ankyrin repeat domain 20 family member A18, pseudogene)	1	1.01	102	inactive
ANKRD20A18P (ankyrin repeat domain 20 family member A18, pseudogene)	2	1.15	105	inactive
ANKRD20A18P (ankyrin repeat domain 20 family member A18, pseudogene)	3	1.2	106	inactive
INF2 (inverted formin 2)	1	2.23	126	inactive
INF2 (inverted formin 2)	2	-1.41	53.8	inactive
INF2 (inverted formin 2)	3	0.0203	82.3	inactive
DOCK11 (dedicator of cytokinesis 11)	1	-1.91	44	inactive
DOCK11 (dedicator of cytokinesis 11)	2	-1.8	46.2	inactive
DOCK11 (dedicator of cytokinesis 11)	3	-2.84	25.4	inactive
C6 (complement C6)	1	-1.44	53.3	inactive
C6 (complement C6)	2	-0.144	79	inactive
C6 (complement C6)	3	-2.2	38.1	inactive
RPN1 (ribophorin I)	1	0.0661	83.2	inactive
RPN1 (ribophorin I)	2	-0.318	75.6	inactive
RPN1 (ribophorin I)	3	0.821	98.2	inactive
SGCA (sarcoglycan alpha)	1	0.427	90.4	inactive
SGCA (sarcoglycan alpha)	2	-0.72	67.6	inactive
SGCA (sarcoglycan alpha)	3	-1.48	52.5	inactive
CFAP418 (cilia and flagella associated protein 418)	1	-1.35	55	inactive
CFAP418 (cilia and flagella associated protein 418)	2	-1.51	51.9	inactive
CFAP418 (cilia and flagella associated protein 418)	3	0.823	98.3	inactive
CERCAM (cerebral endothelial cell adhesion molecule)	1	3.19	145	active
CERCAM (cerebral endothelial cell adhesion molecule)	2	0.136	84.6	inactive
CERCAM (cerebral endothelial cell adhesion molecule)	3	-0.357	74.8	inactive
RASSF5 (Ras association domain family member 5)	1	-0.394	74.1	inactive
RASSF5 (Ras association domain family member 5)	2	-0.0433	81	inactive
RASSF5 (Ras association domain family member 5)	3	0.465	91.1	inactive
HGSNAT (heparan-alpha-glucosaminide N-acetyltransferase)	1	-0.749	67	inactive
HGSNAT (heparan-alpha-glucosaminide N-acetyltransferase)	2	2.8	138	inactive
HGSNAT (heparan-alpha-glucosaminide N-acetyltransferase)	3	0.341	88.7	inactive
CHD4 (chromodomain helicase DNA binding protein 4)	1	-0.0487	80.9	inactive
CHD4 (chromodomain helicase DNA binding protein 4)	2	-0.689	68.2	inactive
CHD4 (chromodomain helicase DNA binding protein 4)	3	3.73	156	active
FCER1A (Fc epsilon receptor Ia)	1	-0.566	70.6	inactive
FCER1A (Fc epsilon receptor Ia)	2	-0.201	77.9	inactive
FCER1A (Fc epsilon receptor Ia)	3	-1.3	56	inactive
MICALL2 (MICAL like 2)	1	0.0533	82.9	inactive
MICALL2 (MICAL like 2)	2	-0.0388	81.1	inactive
MICALL2 (MICAL like 2)	3	0.991	102	inactive
NACC2 (NACC family member 2)	1	2.21	126	inactive
NACC2 (NACC family member 2)	2	0.0288	82.5	inactive
NACC2 (NACC family member 2)	3	-0.0618	80.7	inactive
CEP162 (centrosomal protein 162)	1	1.08	103	inactive
CEP162 (centrosomal protein 162)	2	-0.611	69.7	inactive
CEP162 (centrosomal protein 162)	3	-0.064	80.6	inactive
ZNF140 (zinc finger protein 140)	1	1.57	113	inactive
ZNF140 (zinc finger protein 140)	2	3.98	161	active
ZNF140 (zinc finger protein 140)	3	-0.538	71.2	inactive
ANKRD11 (ankyrin repeat domain 11)	1	0.4	89.8	inactive
ANKRD11 (ankyrin repeat domain 11)	2	4.02	162	active
ANKRD11 (ankyrin repeat domain 11)	3	1.95	121	inactive

5 of these entries in another layout.
| gene | reagent | total luciferase, z-score | total luciferase, % of control | outcome |
| --- | --- | --- | --- | --- |
| ANKRD20A18P (ankyrin repeat domain 20 family member A18, pseudogene) | 2 | 1.15 | 105 | inactive |
| ANKRD20A18P (ankyrin repeat domain 20 family member A18, pseudogene) | 3 | 1.2 | 106 | inactive |
| INF2 (inverted formin 2) | 1 | 2.23 | 126 | inactive |
| INF2 (inverted formin 2) | 2 | -1.41 | 53.8 | inactive |
| INF2 (inverted formin 2) | 3 | 0.0203 | 82.3 | inactive |
